This is an account of results in article PMC7480387.

A negative result means that nothing was seen under these conditions. Tags and fusion partners may be left off the protein sequences shown. The exact form of at least one protein or probe is not confirmed. At least one verdict was read from the data and is not stated in words by the source.

Data set [1] concerns T1, GST-SfbR (Streptomyces filipinensis DSM 40112).
T1 sequence (looked up): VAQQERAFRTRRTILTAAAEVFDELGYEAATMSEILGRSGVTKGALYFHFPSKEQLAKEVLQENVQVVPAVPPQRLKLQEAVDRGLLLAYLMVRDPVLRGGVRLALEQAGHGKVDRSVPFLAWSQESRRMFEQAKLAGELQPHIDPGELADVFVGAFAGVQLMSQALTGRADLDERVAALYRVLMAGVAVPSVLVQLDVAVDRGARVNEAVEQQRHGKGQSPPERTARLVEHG
The experiment in a line: EMSA. The note with it: EMSA: 100 mM HEPES pH 7.6, 10 mM KCl, 5 mM MgCl2, 1 mM DTT, 1% Tween 20, 7.8 mM glutathione, 40 ug/ml poly[d(I-C)], 5% glycerol, 30 C, 10 min, recombinant protein, residues 1-233, protein details: N-terminal GST, label: DIG, both 3' ends, probe letters rebuilt from the primers and the genome.

Data set [2] has as its system T2, GST-SfbR2 (Streptomyces filipinensis DSM 40112).
T2 sequence (looked up): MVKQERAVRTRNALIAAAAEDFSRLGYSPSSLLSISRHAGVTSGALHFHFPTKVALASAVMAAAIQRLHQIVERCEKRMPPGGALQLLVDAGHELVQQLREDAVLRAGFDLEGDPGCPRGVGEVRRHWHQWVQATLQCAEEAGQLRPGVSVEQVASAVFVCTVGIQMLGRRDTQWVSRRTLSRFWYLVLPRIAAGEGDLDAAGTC
The experiment in a line: EMSA. The conditions noted are these: EMSA: 100 mM HEPES pH 7.6, 10 mM KCl, 5 mM MgCl2, 1 mM DTT, 1% Tween 20, 7.8 mM glutathione, 40 ug/ml poly[d(I-C)], 5% glycerol, 30 C, 10 min, recombinant protein, residues 1-205, protein details: N-terminal GST, label: DIG, both 3' ends, probe letters rebuilt from the primers and the genome. On the technique in general: A gel shift assay detects complexes by their altered migration in electrophoresis.

Setting [3] is: up to 5 uM protein, 0.005 ng/ul probe.
Setting [4] is: antimycin A (no dissociation), 0.005 ng/ul probe.
The mark [5] stands for this setting: 2 mM filipin (no dissociation), 0.005 ng/ul probe.

As for “AGCTCGTTCCCCCTGCCCGGTCCAGGGTTCCCGGGGGCCGCGGACCCGCGGGCTCCGGCCCGGCGCCTCCCGCGAACCCATGTCCCGGAGCCCTAACAAACCGCATCAGCGGTTTGTTAATCTTGGGGGAGTTGTGGGCGCGTTCTGCTGCCGGGCAGAGCCGCTTGGACGGGGGTGTCATCTCCGTGGCCGTACGCGGCCACGGAACGGCTCGGGAGCTACGGAGCACCTCGATGGTCAAGCAGGAACGTGCCGTACGGACCCGCAACGCGCTGATCGCCGCTGCGGCCGAAGACTTCAGCAGGCTGGGGTACAGCCCTTCCTCGCTGCTGTCCA (double strand) [sfbR2p]”, the binding result in data set [1] (0.005 ng/ul …) and in data set [2] (0.005 ng/ul …) was “binds” each time.

For “CAGCAGCGGCACGGCAAGGGACAGTCCCCGCCCGAGCGCACGGCCCGCCTCGTCGAGCACGGTTGAGTACGGCCGGATCAGACCCGCACGGCGATCACACACCACCGTGCGGGTCCACCCAGGACGGAGTGCATCAATGGTGGTATCGGCCTGCCCCTACGCCCTGGACCTGACGGGCAGTCACTTAGCGGAGGAAGCCGCCCGGCTCAGACAGCACGGCCCCGCAGCCCGCGTCACCCTGCCCGACGGCGTGCCGGCCTGGGCCGTGACGCGGCACTCCAGCGCCAGGCGACTGCTGGTGGACCCC (double strand) [sfb4p]”, the binding result in data set [1] (setting [3]) and in data set [2] (setting [3]) was “no binding” each time.

Regarding “CGGTGATCTGGGCGTGCCTGCCGTTAACGCGTCGAGCATCAGCGCCTCCTGAGGCATCTCCGGTTCAGGCTTCATGGCGCCGATGATACTGAAAATAAACCGACTACTCCGTTTTATTTGGGCGGGGCTCAAGCGCCTGTAGAGCTGGTTTCGAGCGGGCGGGGCGGGGGCGTCGGGCCTGATCGCAGGCGCCTGAGCCGGGTGAGGGCCGCGCGGCGCAGGGCCGGCGGTTCGTGCTCGGCGCACTCGGCGGCGTAGATGCCGATGAGGCTGTGGAAGCGGTACTCGTTGTCCGGTCCTTCCTCCAGCAGGTGGTGGGCGGC (double strand) [sfb2p]”, the binding result in data set [1] (0.005 ng/ul …) and in data set [2] (0.005 ng/ul …) was “binds” throughout.

Turning to “GAGAGCAGCCCCTTCGCAACGGACCGCGCAGGTCTGCCGCCTTTTTTAACGGGAACCGCGCCGGCCGCTTGTGTGAATACAGCGTTTCACGGCCCGCCGAATGGCTTTACCGCCAGAAGCGGGCCTTCCGCTTCCACTCGAAACGGTTACCCGGCCGAGCGCAAATTTTTCTTCGTGGTCGCCCCAAACTAAACCGGTGAGCCCGTATATTTCGTGGGGACCCTTTCGAACCACGTCGTCATCCAACCTTTGAACCGTCGGGAAGAGGGGAACCCATGACCCTGCTCGTTCGCCAGCAAGAGCCCACCCGC (double strand) [sfbAp]”, the binding result in data set [1] (0.005 ng/ul …), in data set [1] (setting [4]), in data set [2] (setting [5]) and in data set [2] (0.005 ng/ul …) was “binds” each time.

“GCCGCAGCGGTCAGGATCGTACGCCGCGTCCGAAAGGCCCGTTCCTGCTGCGCCACGCCACACCTCCTCACCCTGACCCGGGTCCCCCACACCCGGGAAGCAAAAGAAACCGTCGAGTTCGTATGCTATCAGCACGTGTTCACGCCCGGGCGGTGATCCTCGCGGTGTGGCCCCTCCGCGGCCCGGCCGGCGCGCGGGACCCGCCCGGAAGGGCCGAAGGGTGGCGTGCGCGGAATTCGGTGGGGGTTTTCGCGCGGTCCGTATCCGCCGGCGCCGGTGAATCGGGGCCGGCGTCGAAACGGGTGCGG (double strand) [sfbRp]”: the binding result in data set [1] (0.005 ng/ul …), in data set [1] (setting [4]), in data set [2] (setting [5]) and in data set [2] (0.005 ng/ul …) was “binds” each time.
